The text below walks through data of PubChem BioAssay AID2685 (National Center for Advancing Translational Sciences (NCATS), 2010).

SMILES strings stand for the structures. The list shows a part of the results. Shown are side measurements of this screen, not its main read-out; they come without a call. Compounds called inactive in the main read-out are mostly missing here. The note in brackets gives the kind of curve behind each potency; many fits are weak.

The experiment in a line: qHTS Assay for Lipid Storage Modulators in Drosophila S3 Cells.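 For cell number change: cells counted by Cell Tracker Red CMTPX staining in the red channel.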 The following applies: BODIPY lipid droplet fluorescence, 18-24 h; for cell number change: measured here: cell count max response, cells fed with added oleic acid. Summed up: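 Drosophila S3 cells loaded with oleic acid (400 uM, as added) and compounds at several concentrations; lipid droplets imaged by 488-nm laser-scanning cytometry, 500–530 nm intensity and object ratio to cell channel. Percent activity normalized to 20 uM Triacsin C.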
For orientation: In qHTS, concentration-response curves come from the screen itself.

[1] abbreviates: measured here: cell number channel AC50, cells fed with added oleic acid.
Where [2] appears, read: measured here: lipid fluorescence (Fed channel) AC50, cells fed with added oleic acid.

`S=c1[nH]nc(COc2ccc(Cl)cc2)n1C1CCCCC1`: the cell number change is -58.1%. The AC50 (in general, the concentration giving half of the maximal activity seen) under setting [1] is 20.6 µM [falling, partial curve]. For the same compound, the AC50 under setting [2] was 14.6 µM [falling, partial curve].

On to `O=C(Nc1ccc(O)c2c(=O)cc(-c3ccccc3Cl)oc12)c1cccc(Cl)c1`, for which the cell number change is -35.1%. Under setting [2], the AC50 was 20.6 µM [falling, partial curve].

Consider `COc1ccc(CCN(C)Cc2ccc(C(=O)Nc3ccccc3)cc2)cc1OC`, for which the cell number change was determined as 17.9%. Moreover, the AC50 under setting [2] is 29.1 µM [rising, single point].

As to `O=C(/C=C/c1ccccc1Cl)NCc1cccs1`, the cell number change is -2.99%. For the same compound, under setting [2], the AC50 is 1.16 µM [rising, full curve, poor fit].

As for `Nc1cc(=O)[nH]c(=S)n1-c1ccccc1`, the cell number change was -46.2%. For the same compound, the AC50 under setting [1] is 3.66 µM [falling, full curve]. Further, the AC50 under setting [2] is 7.31 µM [falling, partial curve].

For the compound `COc1ccccc1NC(=O)COC(=O)C12CC3CC(CC(Cl)(C3)C1)C2`, the cell number change stood at 3.75%.

On to `CCCC(=O)NCCCc1nc2ccccc2n1CCC`, for which the cell number change is 19.4%. Moreover, the AC50 under setting [2] was 10.3 µM [rising, partial curve].

Take `O=[N+]([O-])c1cc2c(c(CSc3ncccn3)c1)OCOC2`: the AC50 under setting [2] was 0.58 µM [rising, partial curve, poor fit].

`Cc1ccc(NC2CCCN(C(=O)CCC3(C)CC3)C2)cc1C` (centres undefined): the cell number change was -7.04%. Also, the AC50 under setting [2] was 2.91 µM [falling, partial curve].

Take `CCC(=O)NCc1cc(-c2nn(C)c(=O)c3ccccc23)ccc1C`: the cell number change is -3.3%. The AC50 under setting [2] is 5.8 µM [rising, single point].

`Cc1ccc(NC(=O)c2cc(N3C(=O)C4CC=CCC4C3=O)ccc2N2CCOCC2)cc1Cl` (centres undefined): the cell number change was 119%. Under setting [2], the concentration at half-maximal activity (AC50) was 23.1 µM [rising, single point].

As to `Cc1ccc(C(=O)CC(=O)c2cc(Cl)ccc2O)cc1`, the cell number change was -19.4%. In addition, under setting [2], the AC50 is 2.91 µM [rising, single point].

For `Cc1ccc(C(C)NC(=O)c2cc3cc(Br)ccc3oc2=N)cc1` (centres undefined), the cell number change is -16.1%.

As to `O/N=C(\Cc1cscn1)c1ccc(O)cc1O`, under setting [2], the AC50 was 0.0058 µM [falling, full curve].

`Cc1ccc(C)c(COC(=O)c2cc([N+](=O)[O-])ccc2N2CCOCC2)c1`: the cell number change is -47.5%.

Regarding `O=C(/C=C/c1ccccc1)NNC(=O)c1ccco1`, the cell number change was -32.5%. Moreover, the AC50 under setting [1] is 9.2 µM [falling, partial curve, poor fit]. Besides, the AC50 under setting [2] is 1.64 µM [falling, partial curve].

For `O=C(O)CCNC(=O)C12CC3CC(CC(C3)C1)C2`, the cell number change is -17.4%. Further, the AC50 under setting [2] was 20.6 µM [falling, partial curve, poor fit].

In the case of `Cc1cc(=O)oc2cc(OCC(=O)N3CC(C)OC(C)C3)ccc12` (centres undefined), the cell number change is -1.73%. The half-maximal activity concentration (AC50) under setting [2] is 2.31 µM [falling, partial curve].

In the case of `CC1=CCC2C(=O)N(c3ccc(N4CCOCC4)cc3)C(=O)C2C1` (centres undefined), the cell number change was -11.3%. For the same compound, the AC50 under setting [2] was 0.461 µM [falling, partial curve, poor fit].

`Cc1cc([N+](=O)[O-])ccc1NC(=O)C(C)N1CCN(c2ccccn2)CC1` (centres undefined): the cell number change came out at 3.11%. Under setting [2], the AC50 is 0.291 µM [rising, partial curve, poor fit].

Take `COc1ccc(OC)c(/C=N\NC(=O)c2ccc(-c3ccccc3)cc2)c1`: under setting [2], the AC50 was 25.9 µM [falling, single point].

Regarding `Cc1[nH]n(-c2ccccc2)c(=O)c1N=Nc1nccs1`, the cell number change came out at 13%.

Turning to `FC(F)(F)c1ccccc1NC(=S)NN1CCOCC1`, the cell number change came out at 25.5%. Also, the AC50 under setting [2] was 0.00517 µM [rising, full curve, poor fit].

In the case of `NC(=O)c1cccc2c1C(=O)N(C1CCCCC1)C2`, the cell number change stood at 5.97%. Besides, the AC50 under setting [2] was 16.4 µM [rising, partial curve].

Turning to `CCn1c(SCC(=O)N/N=C(\C)c2ccco2)nnc1-c1ccccc1`, the cell number change was found to be 13.5%.

In the case of `CCCc1c(C(=O)N/N=C/c2c(OC)ccc3ccccc23)nnn1-c1nonc1N`, the cell number change amounted to 26.3%. In addition, the AC50 under setting [2] is 5.8 µM [falling, single point].

As to `COC(=O)c1c(NC(=O)C2CC(C)=C(C)CC2C(=O)O)sc2c1CCCCC2` (centres undefined), the cell number change was 12.7%. Under setting [2], the AC50 was 10.3 µM [rising, partial curve, poor fit].

Regarding `Cc1cccc2c(=O)c(-c3ccc4c(c3)OCO4)c(NC(=O)c3ccco3)oc12`, the cell number change was -0.472%.

As for `COc1cc2[nH]c(=O)n(CCC(=O)NC3CCCC3)c(=O)c2cc1OC`, the cell number change was -4.99%. The AC50 under setting [2] was 0.184 µM [falling, full curve, poor fit].

As for `CC1CCCN(CC(=O)Nc2ccc(S(=O)(=O)N3CCCC3)cc2)C1` (centres undefined), the cell number change amounted to 19.7%. Moreover, under setting [2], the AC50 was 35.5 µM [rising, single point].

Regarding `CCCOc1ccccc1/C=N/NC(=O)C1CC1`, the cell number change turned out to be 9.54%.

As for `O=C1N(CC(=O)N2CCc3ccccc32)CCN1Cc1ccccc1Cl`, the cell number change came out at 197%. For the same compound, under setting [1], the half-maximal activity concentration (AC50) is 29.1 µM [rising, single point]. Also, the AC50 under setting [2] is 6.51 µM [falling, single point].

Turning to `COc1ccc(CNC(=O)C2CCC(CNS(=O)(=O)c3ccccc3)CC2)cc1` (centres undefined), the cell number change turned out to be 1.41%. Moreover, the AC50 under setting [2] was 6.51 µM [rising, single point].

Regarding `COc1ccc(-c2noc(CSc3nnc(-c4ccncc4)n3-c3ccc(F)cc3)n2)cc1OC`, the concentration at half-maximal activity (AC50) under setting [2] was 0.651 µM [rising, full curve].

As to `CCC1CCCCN1CCCn1c(=S)[nH]c2ccccc2c1=O` (centres undefined), the cell number change stood at 13.3%. Under setting [2], the AC50 is 0.146 µM [falling, full curve, poor fit].

As to `CC1=C/C(=N\NC(=S)Nc2cccnc2)CC(C)(C)C1`, the cell number change came to 30.3%. In addition, under setting [1], the AC50 was 7.31 µM [rising, partial curve, poor fit].

Take `Cc1ccc(NC(=O)c2ccc3c(c2)C(=O)N(c2cc(C)ccc2C)C3=O)nc1`: under setting [2], the AC50 was 29.1 µM [rising, single point].

With `Cc1cc(C(F)(F)F)nc(SCC(=O)Nc2ccccc2)n1`, the cell number change stood at 2.33%. Besides, the AC50 under setting [2] was 1.3 µM [rising, full curve].

On to `CC1CCC(C(C)C)C(OCC(O)CNC(C)(C)C)C1` (centres undefined), for which the cell number change was found to be 0.966%. Moreover, the concentration at half-maximal activity (AC50) under setting [1] is 6.51 µM [falling, single point]. Moreover, the AC50 under setting [2] is 6.51 µM [falling, single point].

For `NC(=O)c1ccccc1OCC(=O)O`, the cell number change came out at 22.4%. Besides, under setting [2], the AC50 is 29.1 µM [rising, single point].

As to `CCOC(=O)C(NCc1ccccc1)(NC(=O)c1ccccc1)C(F)(F)F` (centres undefined), the cell number change was -1.73%. For the same compound, under setting [2], the AC50 is 3.66 µM [falling, full curve].

Regarding `CCOC(=O)C1CCCN(c2c(Nc3ccc(OCC)cc3)c(=O)c2=O)C1` (centres undefined), the cell number change was determined as 5.52%. Moreover, the AC50 under setting [2] was 0.58 µM [falling, single point].

In the case of `O=c1c2nccnc2[nH]c(=S)n1Cc1ccccc1Cl`, the cell number change worked out at 10%.

Take `COc1ccc([C@]23Cc4cc(OC)c(OC)cc4C(O2)c2c(cc(-c4ccccc4)oc2=O)O3)cc1`: the cell number change worked out at 20.9%. Also, under setting [2], the concentration at half-maximal activity (AC50) is 5.31 µM [rising, single point].

Consider `Cc1ccc(-c2nn(CC(=O)NCc3ccco3)c(=O)c3ccccc23)cc1`, for which the cell number change was -24.1%.

`CC1(C)N=C(c2ccc(Cl)cc2Cl)C(=O)N1`: the cell number change is 18.4%. In addition, the AC50 under setting [2] was 7.31 µM [falling, partial curve].

For `COc1ccc(C(=O)N/C(=C\c2cn(C)c3ccccc23)C(=O)NCCCn2ccnc2)cc1`, the cell number change was -14.2%. The AC50 under setting [1] is 0.291 µM [rising, single point]. Besides, the AC50 under setting [2] was 6.51 µM [falling, single point].

Turning to `CN(C)S(=O)(=O)c1c(Cl)cccc1Cl`, the cell number change is -25.3%. The half-maximal activity concentration (AC50) under setting [1] was 1.16 µM [falling, full curve, poor fit]. For the same compound, the AC50 under setting [2] is 14.6 µM [falling, single point].

As to `O=C(Nc1nc2ccc([N+](=O)[O-])cc2s1)c1ccco1`, the cell number change is -64.8%. Moreover, under setting [2], the AC50 is 0.731 µM [falling, full curve].

As to `N=c1sccn1CC(=O)N1CCc2ccccc21`, the cell number change is -96.1%. Also, the AC50 under setting [1] was 29.1 µM [falling, single point]. Besides, under setting [2], the AC50 was 0.92 µM [falling, full curve, poor fit].

Consider `O=S(=O)(Nc1cccc2cccnc12)c1ccccc1`, for which the cell number change was -28.9%. Moreover, the AC50 under setting [2] was 1.26 µM [rising, full curve].

For `CCOc1ccc(C(=O)NC(C)C2COc3ccccc3O2)cc1` (centres undefined), the cell number change turned out to be 16.5%.

`CCC(=O)NCCCOc1ccccc1`: the cell number change came to 2.78%. For the same compound, the AC50 under setting [2] was 0.13 µM [falling, full curve, poor fit].

For the compound `Cc1cc(S(=O)(=O)N2CCN=C2c2ccccc2)c(C)cc1Cl`, the cell number change was -33.1%. Also, the AC50 under setting [1] is 4.61 µM [falling, full curve, poor fit]. Besides, the AC50 under setting [2] was 4.11 µM [falling, full curve].

Consider `CCOC(=O)c1cnn(-c2ccc(NS(=O)(=O)c3ccc(Cl)cc3)cc2)c1C(F)(F)F`, for which the cell number change was -43.8%. In addition, the AC50 under setting [1] was 16.4 µM [falling, single point]. Further, the AC50 under setting [2] was 29.1 µM [falling, single point].

On to `Cc1cc(=O)oc2c(C)c(OCC(=O)NCCCn3ccnc3)ccc12`, for which the cell number change stood at 21.4%.

Take `CCCCNS(=O)(=O)c1ccc(NC(=O)Cc2ccc(OC)cc2)cc1`: the cell number change worked out at 20.5%. Besides, the AC50 under setting [2] was 29.1 µM [rising, single point].

`Cc1ccc(S(=O)(=O)NC(=O)Nc2cccc(C)n2)cc1`: the cell number change was determined as 24.2%. Under setting [1], the AC50 is 2.91 µM [falling, single point]. Moreover, the half-maximal activity concentration (AC50) under setting [2] is 2.91 µM [falling, single point].

On to `COc1cccc(/C=C/C(=O)c2cccc([N+](=O)[O-])c2)c1`, for which the cell number change was -23.2%.

On to `C=CCNC(=O)c1ccccc1NC(=O)c1ccccc1SC`, for which the cell number change is -2.55%.

Take `COc1ccc(OC)c(CCNC(=O)C2CCN(c3ncnc4c3nc3n4CCCCC3)CC2)c1`: the cell number change was -6.6%.

In the case of `CCOC(=O)c1ccccc1OCc1cc(/C=N/NC(=O)c2ccncc2)ccc1OC`, the cell number change is 18%. The AC50 under setting [1] is 0.13 µM [rising, full curve, poor fit]. Moreover, the AC50 under setting [2] is 2.06 µM [rising, partial curve, poor fit].

Turning to `CCC(C)N1C(=O)CCC1C(=O)NCc1ccc2c(c1)OCO2` (centres undefined), the cell number change is -27.7%. Further, the half-maximal activity concentration (AC50) under setting [2] is 6.51 µM [falling, single point].
